Data source: PubChem BioAssay AID504764 (Drosophila RNAi Screening Center, 2011)
Assay: 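Genome-wide screen for regulators of Notch-driven gene expression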 (primary screen). Cells: Drosophila Kc167 cells. Knock-down reagent: long dsRNA against Drosophila genes. Timing: about 5 days (4 days dsRNA, then 24 h after transfection). Challenge: transfection of constitutively active membrane-tethered Notch lacking the extracellular domain, read 24 h later. Measured: 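Firefly luciferase from an E(spl)m3 reporter with active Notch, plus control-promoter and uninduced reporter wells for normalisation; unnormalised counts, duplicate wells a and b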. Scale: induced reporter light, run 1, well a and induced reporter light, run 1, well b: higher = more light from the Notch target reporter with active Notch; control promoter light, run 1, well a and control promoter light, run 1, well b: higher = more light from the viral control promoter (cell number, transfection, viability); uninduced reporter light, run 1, well a: higher = more light from the Notch target reporter without active Notch. Rule for the call: 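Hit if the duplicate-averaged log2 ratio of induced to control-promoter light gives a plate-wise z beyond ±2, or induced to uninduced beyond ±1.8; weak-control or discordant-duplicate wells dropped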. Calls: active = modifier hit (raised or lowered Notch signal); inactive = not a hit.
In all, the deposit lists about 22,000 reagents; below is an unselected part of those with a known target gene and a result. Of all reagents, 403 (1.9%) are marked active. 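Unnormalised raw counts per well; ratio z-scores behind the hit calls and whether each hit raises or lowers signal are not deposited.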 Names joined by + are all predicted targets of the reagent. Not given: the amount of reagent.

target gene,dsRNA,"induced reporter light, run 1, well a","induced reporter light, run 1, well b","control promoter light, run 1, well a","control promoter light, run 1, well b","uninduced reporter light, run 1, well a",call
aPKC,DRSC05515,2.08e5,1.73e5,2.33e5,2.48e5,16180,inactive
aPKC,DRSC07639,99395,1.04e5,1.04e5,1.05e5,7545,inactive
CG3556,DRSC18309,1.83e5,1.85e5,2.37e5,2.36e5,13738,inactive
CCAP,DRSC15674,1.48e5,1.48e5,1.85e5,1.81e5,12355,inactive
eRF1,DRSC11779,20560,18165,24705,21045,1575,inactive
CG8924,DRSC20122,20915,24310,24190,23345,6320,inactive
Dhc62B,DRSC08655,1.60e5,1.23e5,1.72e5,1.36e5,6760,inactive
beat-IIa,DRSC14813,1.45e5,1.56e5,1.32e5,1.40e5,13165,inactive
beat-IIa,DRSC14814,1.81e5,1.81e5,2.14e5,1.98e5,16515,inactive
CG15548,DRSC15086,1.55e5,1.11e5,2.21e5,2.44e5,11075,inactive
CG43737,DRSC19609,89785,1.06e5,1.27e5,1.04e5,15745,inactive
CG8159,DRSC16392,1.03e5,94800,72210,88955,6805,inactive
CG4681,DRSC04481,1.46e5,1.32e5,1.41e5,1.57e5,8450,inactive
CG9825,DRSC04569,1.92e5,1.75e5,2.45e5,1.48e5,13765,inactive
CG43658,DRSC20111,44645,41415,49850,45570,6870,inactive
CG42340,DRSC17458,83885,72205,80355,67545,6028,active
CG42340,DRSC17841,1.38e5,1.26e5,2.35e5,2.68e5,9305,inactive
CG42340,DRSC18305,1.40e5,1.58e5,2.71e5,2.76e5,9295,inactive
CG42340,DRSC21619,,,,,,inactive
PNPase,DRSC14304,1.92e5,1.81e5,2.66e5,3.07e5,15185,inactive
T48,DRSC16878,1.46e5,1.68e5,2.15e5,1.64e5,13085,inactive
Fancl,DRSC14550,77485,93855,61975,58945,3400,inactive
Rim,DRSC16224,1.69e5,1.67e5,2.02e5,2.08e5,14255,inactive
Rim,DRSC16225,12815,11192,13810,15100,3738,inactive
Rim,DRSC16226,1.50e5,1.67e5,1.80e5,1.90e5,15135,inactive
Rim,DRSC16227,2.23e5,1.97e5,1.89e5,2.00e5,14515,inactive
Send2,DRSC01906,1.29e5,1.54e5,1.22e5,1.34e5,10345,inactive
PH4alphaNE2,DRSC16544,1.43e5,1.46e5,1.99e5,1.74e5,11575,inactive
RpL37-2,DRSC04584,1.84e5,1.55e5,1.34e5,1.53e5,12075,inactive
Rpp20 + CG33932,DRSC19467,1.03e5,1.17e5,1.27e5,1.33e5,12445,inactive
P32,DRSC06988,91055,74505,1.62e5,2.05e5,7350,inactive
CG17078,DRSC00484,99405,1.02e5,96900,64640,7995,inactive
CG13589,DRSC04225,1.89e5,1.97e5,1.87e5,2.06e5,14100,inactive
CG14562,DRSC11723,35165,35280,32095,25790,2110,inactive
CG14374,DRSC14834,1.92e5,2.70e5,2.55e5,1.94e5,17642,inactive
CG17658,DRSC04292,1.66e5,1.68e5,1.71e5,1.70e5,12965,inactive
Nmd3,DRSC18687,1.75e5,1.69e5,3.02e5,2.49e5,13005,inactive
CG7148,DRSC11802,1.14e5,1.04e5,76315,86320,8855,inactive
CG18273,DRSC18150,1.63e5,1.35e5,2.35e5,2.33e5,12365,inactive
CG18273,DRSC18505,1.98e5,1.93e5,2.26e5,2.90e5,13805,inactive
betaNACtes1,DRSC19534,60505,65820,74650,63225,9260,inactive
Tip60,DRSC18661,2.11e5,2.22e5,4.00e5,3.62e5,17360,active
Ir41a,DRSC04730,1.85e5,2.07e5,2.40e5,2.55e5,12292,inactive
Ir41a,DRSC04875,1.70e5,1.62e5,1.56e5,1.49e5,10735,inactive
mRNA-cap,DRSC19789,62620,58135,72535,55995,11460,inactive
CG11529,DRSC09839,1.43e5,1.35e5,2.38e5,1.42e5,6755,inactive
Aven,DRSC19693,1.08e5,84915,1.27e5,1.17e5,7085,inactive
Tapdelta,DRSC05946,1.36e5,1.48e5,1.14e5,1.15e5,12925,inactive
Nepl9,DRSC02255,1.80e5,1.76e5,1.79e5,2.05e5,14450,inactive
Cyp313b1,DRSC16629,1.01e5,98855,1.03e5,80570,8532,inactive

Records listed above marked active:
target gene,dsRNA,"induced reporter light, run 1, well a","induced reporter light, run 1, well b","control promoter light, run 1, well a","control promoter light, run 1, well b","uninduced reporter light, run 1, well a",call
CG42340,DRSC17458,83885,72205,80355,67545,6028,active
Tip60,DRSC18661,2.11e5,2.22e5,4.00e5,3.62e5,17360,active
